Results: publication PMC6250434
No constants are given. Whether binding was seen depends on the method and setting. Binding seen in cells or lysates may run through a third protein. Some entries that bind do so weakly or less than the wild type.

Sequences of proteins named here, by UniProt entry; tags and fusion partners are left off.
UniProt O14980: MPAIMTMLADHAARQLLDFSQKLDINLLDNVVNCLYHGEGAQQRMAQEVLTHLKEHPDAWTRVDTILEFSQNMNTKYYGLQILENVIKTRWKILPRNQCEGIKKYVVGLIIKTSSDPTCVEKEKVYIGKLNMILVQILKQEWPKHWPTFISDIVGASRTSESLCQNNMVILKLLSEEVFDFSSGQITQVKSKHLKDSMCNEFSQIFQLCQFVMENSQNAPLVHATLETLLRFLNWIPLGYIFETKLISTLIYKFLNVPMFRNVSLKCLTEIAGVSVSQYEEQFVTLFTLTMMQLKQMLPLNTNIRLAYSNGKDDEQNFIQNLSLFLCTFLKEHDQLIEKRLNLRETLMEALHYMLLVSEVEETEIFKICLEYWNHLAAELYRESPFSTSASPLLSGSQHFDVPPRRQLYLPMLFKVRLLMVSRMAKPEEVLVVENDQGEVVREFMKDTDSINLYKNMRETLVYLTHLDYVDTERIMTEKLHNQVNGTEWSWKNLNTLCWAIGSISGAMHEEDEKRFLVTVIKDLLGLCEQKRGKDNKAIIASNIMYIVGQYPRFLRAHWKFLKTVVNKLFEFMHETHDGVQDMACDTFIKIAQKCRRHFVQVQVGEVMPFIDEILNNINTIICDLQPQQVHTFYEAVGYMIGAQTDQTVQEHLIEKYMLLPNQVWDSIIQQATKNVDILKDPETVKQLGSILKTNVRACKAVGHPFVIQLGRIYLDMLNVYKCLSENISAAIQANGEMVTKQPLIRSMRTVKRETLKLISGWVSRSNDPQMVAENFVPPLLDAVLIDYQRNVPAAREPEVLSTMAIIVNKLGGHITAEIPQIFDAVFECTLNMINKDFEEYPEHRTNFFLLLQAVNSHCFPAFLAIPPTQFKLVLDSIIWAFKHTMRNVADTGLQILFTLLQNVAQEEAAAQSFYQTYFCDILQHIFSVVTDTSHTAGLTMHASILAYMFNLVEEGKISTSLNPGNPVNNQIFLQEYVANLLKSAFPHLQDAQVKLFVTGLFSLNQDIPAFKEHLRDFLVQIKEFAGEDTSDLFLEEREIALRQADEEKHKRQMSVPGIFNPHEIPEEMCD
UniProt Q14974: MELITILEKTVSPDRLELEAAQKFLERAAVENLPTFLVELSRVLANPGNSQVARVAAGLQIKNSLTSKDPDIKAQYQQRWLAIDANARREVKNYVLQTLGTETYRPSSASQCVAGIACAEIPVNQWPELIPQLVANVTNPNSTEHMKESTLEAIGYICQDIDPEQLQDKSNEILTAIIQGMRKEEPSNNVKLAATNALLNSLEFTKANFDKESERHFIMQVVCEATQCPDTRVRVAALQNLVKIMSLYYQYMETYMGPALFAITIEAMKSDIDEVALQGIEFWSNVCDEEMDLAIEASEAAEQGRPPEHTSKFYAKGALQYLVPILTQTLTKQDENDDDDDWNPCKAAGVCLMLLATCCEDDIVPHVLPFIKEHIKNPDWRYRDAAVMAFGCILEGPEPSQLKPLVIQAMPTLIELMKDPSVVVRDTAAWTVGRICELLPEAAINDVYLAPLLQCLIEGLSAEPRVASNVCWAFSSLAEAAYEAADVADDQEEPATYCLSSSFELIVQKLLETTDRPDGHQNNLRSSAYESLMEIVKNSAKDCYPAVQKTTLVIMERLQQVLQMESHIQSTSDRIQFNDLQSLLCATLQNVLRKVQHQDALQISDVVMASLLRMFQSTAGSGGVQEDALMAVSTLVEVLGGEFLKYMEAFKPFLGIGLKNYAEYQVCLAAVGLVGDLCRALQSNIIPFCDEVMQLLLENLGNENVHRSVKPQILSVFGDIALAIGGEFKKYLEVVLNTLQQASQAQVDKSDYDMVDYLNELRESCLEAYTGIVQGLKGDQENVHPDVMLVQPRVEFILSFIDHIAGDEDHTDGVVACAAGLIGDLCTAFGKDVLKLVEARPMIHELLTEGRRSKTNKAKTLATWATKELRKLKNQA
UniProt Q9NWT6: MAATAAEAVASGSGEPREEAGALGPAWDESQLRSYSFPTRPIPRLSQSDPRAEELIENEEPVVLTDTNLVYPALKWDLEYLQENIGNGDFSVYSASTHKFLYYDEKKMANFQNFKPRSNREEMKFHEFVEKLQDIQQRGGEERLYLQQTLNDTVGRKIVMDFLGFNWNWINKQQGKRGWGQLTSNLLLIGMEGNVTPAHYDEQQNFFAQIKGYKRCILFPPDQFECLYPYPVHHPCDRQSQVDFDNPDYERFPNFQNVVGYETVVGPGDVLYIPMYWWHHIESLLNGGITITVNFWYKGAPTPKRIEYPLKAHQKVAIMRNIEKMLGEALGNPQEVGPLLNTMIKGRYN
UniProt Q16665: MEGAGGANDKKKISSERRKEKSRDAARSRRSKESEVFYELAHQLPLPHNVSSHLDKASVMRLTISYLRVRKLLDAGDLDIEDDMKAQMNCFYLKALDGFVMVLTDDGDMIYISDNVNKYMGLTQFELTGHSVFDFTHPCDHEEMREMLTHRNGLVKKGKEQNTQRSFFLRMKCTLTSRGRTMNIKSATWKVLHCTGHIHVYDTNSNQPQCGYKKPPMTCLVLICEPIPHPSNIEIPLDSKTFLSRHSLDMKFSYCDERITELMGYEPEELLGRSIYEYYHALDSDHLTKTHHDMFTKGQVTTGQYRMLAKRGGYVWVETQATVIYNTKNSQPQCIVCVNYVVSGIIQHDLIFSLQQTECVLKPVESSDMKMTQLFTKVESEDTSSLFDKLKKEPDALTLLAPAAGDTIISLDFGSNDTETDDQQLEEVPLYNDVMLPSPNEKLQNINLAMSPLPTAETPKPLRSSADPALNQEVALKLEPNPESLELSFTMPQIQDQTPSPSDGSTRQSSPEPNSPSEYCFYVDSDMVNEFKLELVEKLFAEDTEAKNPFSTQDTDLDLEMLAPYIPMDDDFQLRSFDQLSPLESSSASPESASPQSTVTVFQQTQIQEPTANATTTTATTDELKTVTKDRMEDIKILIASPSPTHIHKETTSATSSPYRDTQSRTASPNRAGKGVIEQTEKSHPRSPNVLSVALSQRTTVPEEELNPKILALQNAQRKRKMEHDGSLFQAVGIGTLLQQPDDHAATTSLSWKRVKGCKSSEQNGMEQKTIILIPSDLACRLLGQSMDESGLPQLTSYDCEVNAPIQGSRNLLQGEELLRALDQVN

How the values were obtained:
[1] = molecular target: exportin1 (chromosome region maintenance 1, CRM1) (human (endogenous in U2OS)) (UniProt O14980); test: co-IP; total lysates of untransfected U2OS cells immunoprecipitated with anti-exportin1 antibody or control IgG, blotted for endogenous FIH; pNAS buffer, 16 h at 4°C
[2] = molecular target: importin β1 (human (endogenous in U2OS)) (UniProt Q14974); test: co-IP; total lysates of U2OS cells transfected with control siRNA and treated with DMSO or DMOG (1 mM) for 3 h; immunoprecipitated with anti-importin β1 antibody or control IgG, blotted for FIH and HIF1α; pNAS buffer, 16 h at 4°C

Row | binding [1] | binding [2] | Substance
1 | binds | – | Factor inhibiting HIF (FIH) (from UniProt Q9NWT6 1-349) (enzyme)
2 | – | binds | Hypoxia-inducible factor 1 alpha (HIF1α) (from UniProt Q16665 1-826)
